Laboratory results taken from paper PMC7430664, “Yeast pentatricopeptide protein Dmr1 (Ccm1) binds a repetitive AU-rich motif in the small subunit mitochondrial ribosomal RNA”.
For at least one entry, the source does not settle the construct or the ends of the probe. A weaker result is weaker than the reference pair of the same experiment. Tags and fusion partners may be left off the protein sequences shown.

Target: T1, Dmr1p (Ccm1p), tag removed (Saccharomyces cerevisiae) (UniProt P48237)
T1 sequence (looked up, limits assumed): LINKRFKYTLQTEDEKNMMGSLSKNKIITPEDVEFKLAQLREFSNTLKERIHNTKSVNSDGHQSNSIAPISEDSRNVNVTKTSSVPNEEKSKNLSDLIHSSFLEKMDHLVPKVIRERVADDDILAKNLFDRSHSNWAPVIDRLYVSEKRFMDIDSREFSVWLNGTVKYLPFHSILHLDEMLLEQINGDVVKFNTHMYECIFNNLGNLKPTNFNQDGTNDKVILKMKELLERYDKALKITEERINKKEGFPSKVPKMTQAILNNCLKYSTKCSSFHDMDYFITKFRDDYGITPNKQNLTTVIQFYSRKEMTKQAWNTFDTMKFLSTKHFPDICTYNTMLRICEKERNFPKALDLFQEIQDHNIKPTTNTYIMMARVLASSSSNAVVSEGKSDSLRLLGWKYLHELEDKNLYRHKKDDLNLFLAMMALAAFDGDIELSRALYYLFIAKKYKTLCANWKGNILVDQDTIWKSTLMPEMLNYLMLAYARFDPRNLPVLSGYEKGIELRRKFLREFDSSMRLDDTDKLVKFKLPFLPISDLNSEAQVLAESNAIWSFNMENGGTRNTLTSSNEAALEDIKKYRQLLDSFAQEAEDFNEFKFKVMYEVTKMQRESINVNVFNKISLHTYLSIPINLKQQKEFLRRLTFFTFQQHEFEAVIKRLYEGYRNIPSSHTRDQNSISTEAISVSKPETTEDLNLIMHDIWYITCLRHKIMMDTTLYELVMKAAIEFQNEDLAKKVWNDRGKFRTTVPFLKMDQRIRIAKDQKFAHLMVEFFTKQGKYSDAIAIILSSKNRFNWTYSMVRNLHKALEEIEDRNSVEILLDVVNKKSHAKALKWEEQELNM
Test: EMSA
Settings: 0.2 ug tRNA, marginal at highest protein, EMSA as in Puchta et al. 2010 (buffer not restated), 15 uL, up to 0.8 ug Dmr1p, BSA to constant protein, recombinant protein, label: 32P-UTP, letters put together from the description

GGAUAAUAUGGGUAAU [7_14]
binding result: binds more weakly
